These are yes or no findings as the source states them, for the method shown. Binding seen in cells or lysates may run through a third protein. Here binding means that the protein was enriched with, or labelled near, the bait; the list need not be complete.
What was measured:
Set3-3HA (C. albicans) = experiment: affinity purification with mass spectrometry; Set3-3HA or Hos2-3HA immunoprecipitated from whole cell extracts with anti-HA (3F10) agarose beads, overnight at 4°C; stringent lysis buffer (PBS with 300 mM NaCl, 1% Triton X-100, 2 mM DTT), six washes; SDS-PAGE, silver-stained bands identified by mass spectrometry
Hos2-3HA (C. albicans) = experiment: as above

By UniProt entry, the sequences of proteins in these tests, tags left out. Where a name states a change or a piece, a line headed by the entry shows the natural chain unless it says otherwise.
UniProt A0A1D8PJ17: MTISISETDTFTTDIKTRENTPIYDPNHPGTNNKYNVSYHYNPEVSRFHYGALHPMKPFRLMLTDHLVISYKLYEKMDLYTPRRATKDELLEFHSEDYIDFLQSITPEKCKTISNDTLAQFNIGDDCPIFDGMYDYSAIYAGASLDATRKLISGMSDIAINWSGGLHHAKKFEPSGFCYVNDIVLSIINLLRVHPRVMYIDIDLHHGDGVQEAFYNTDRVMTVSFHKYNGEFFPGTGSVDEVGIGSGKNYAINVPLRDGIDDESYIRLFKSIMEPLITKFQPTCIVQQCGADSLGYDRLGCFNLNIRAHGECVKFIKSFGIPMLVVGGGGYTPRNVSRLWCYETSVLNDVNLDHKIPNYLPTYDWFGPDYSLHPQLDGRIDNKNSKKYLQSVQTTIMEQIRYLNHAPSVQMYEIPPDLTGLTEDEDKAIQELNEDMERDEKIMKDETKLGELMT
UniProt A0A1D8PFV9: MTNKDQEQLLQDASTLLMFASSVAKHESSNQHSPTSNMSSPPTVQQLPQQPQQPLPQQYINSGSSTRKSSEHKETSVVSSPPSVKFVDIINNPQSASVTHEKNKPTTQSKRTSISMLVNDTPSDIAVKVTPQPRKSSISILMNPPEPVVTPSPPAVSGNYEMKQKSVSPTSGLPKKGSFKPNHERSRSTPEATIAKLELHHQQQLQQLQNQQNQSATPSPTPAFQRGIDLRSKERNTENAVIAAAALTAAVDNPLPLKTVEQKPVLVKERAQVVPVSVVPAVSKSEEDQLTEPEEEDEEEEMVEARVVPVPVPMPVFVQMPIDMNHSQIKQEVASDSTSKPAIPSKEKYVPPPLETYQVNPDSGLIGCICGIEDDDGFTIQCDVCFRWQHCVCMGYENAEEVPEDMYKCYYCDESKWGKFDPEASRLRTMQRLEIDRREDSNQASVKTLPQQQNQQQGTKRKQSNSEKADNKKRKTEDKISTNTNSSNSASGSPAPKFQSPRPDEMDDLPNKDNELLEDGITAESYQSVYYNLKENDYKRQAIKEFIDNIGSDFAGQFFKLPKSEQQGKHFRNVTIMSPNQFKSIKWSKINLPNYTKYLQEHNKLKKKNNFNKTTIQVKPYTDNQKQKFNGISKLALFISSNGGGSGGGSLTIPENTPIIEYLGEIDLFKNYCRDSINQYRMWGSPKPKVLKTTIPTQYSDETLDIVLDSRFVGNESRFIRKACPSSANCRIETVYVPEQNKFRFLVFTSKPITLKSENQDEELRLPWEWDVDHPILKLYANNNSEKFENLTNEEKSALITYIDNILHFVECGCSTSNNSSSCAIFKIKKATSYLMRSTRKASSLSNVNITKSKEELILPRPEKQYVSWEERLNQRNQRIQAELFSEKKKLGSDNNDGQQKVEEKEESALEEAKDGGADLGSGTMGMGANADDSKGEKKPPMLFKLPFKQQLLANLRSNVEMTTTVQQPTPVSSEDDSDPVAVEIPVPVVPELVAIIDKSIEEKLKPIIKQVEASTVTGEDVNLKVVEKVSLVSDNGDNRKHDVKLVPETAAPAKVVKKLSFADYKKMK
UniProt A0A1D8PFD3: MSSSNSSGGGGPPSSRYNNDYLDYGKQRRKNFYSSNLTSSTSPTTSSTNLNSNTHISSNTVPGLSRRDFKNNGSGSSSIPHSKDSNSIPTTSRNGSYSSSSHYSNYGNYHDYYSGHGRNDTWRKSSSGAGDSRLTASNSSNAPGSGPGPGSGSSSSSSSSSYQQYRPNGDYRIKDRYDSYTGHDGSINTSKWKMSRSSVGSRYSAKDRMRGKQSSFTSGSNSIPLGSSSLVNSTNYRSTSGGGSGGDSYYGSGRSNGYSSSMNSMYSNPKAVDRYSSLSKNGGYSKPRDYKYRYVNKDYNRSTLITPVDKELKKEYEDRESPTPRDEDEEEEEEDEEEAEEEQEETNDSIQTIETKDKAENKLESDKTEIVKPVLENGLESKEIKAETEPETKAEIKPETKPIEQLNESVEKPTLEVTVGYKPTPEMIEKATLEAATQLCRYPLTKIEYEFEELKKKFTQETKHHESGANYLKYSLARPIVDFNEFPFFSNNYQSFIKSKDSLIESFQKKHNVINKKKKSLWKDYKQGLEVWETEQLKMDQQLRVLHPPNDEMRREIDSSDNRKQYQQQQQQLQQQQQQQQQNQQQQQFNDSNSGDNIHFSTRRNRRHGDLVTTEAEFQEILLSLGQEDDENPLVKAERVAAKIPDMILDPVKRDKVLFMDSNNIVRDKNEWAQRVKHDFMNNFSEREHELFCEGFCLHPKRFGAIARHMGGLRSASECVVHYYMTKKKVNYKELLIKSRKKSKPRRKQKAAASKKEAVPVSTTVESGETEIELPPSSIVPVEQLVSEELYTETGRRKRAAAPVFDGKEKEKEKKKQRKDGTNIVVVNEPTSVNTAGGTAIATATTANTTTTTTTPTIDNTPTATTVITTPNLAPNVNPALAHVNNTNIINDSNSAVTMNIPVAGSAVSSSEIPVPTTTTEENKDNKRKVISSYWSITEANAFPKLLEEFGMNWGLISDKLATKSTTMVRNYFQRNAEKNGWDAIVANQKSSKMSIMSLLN

Substance	binding (Set3-3HA (C. albicans))	binding (Hos2-3HA (C. albicans))
Hos2 (from UniProt A0A1D8PJ17 1-454)	binds	–
Set3 (from UniProt A0A1D8PFV9)	–	binds
Snt1 (from UniProt A0A1D8PFD3 1-1001)	binds	binds
